# According to the supplement of paper PMC12823440, “Inhibitors supercharge kinase turnover through native proteolytic circuits” (Nature, 2025):
# By UniProt entry, the sequences of proteins in these tests, tags left out. Where a name states a change or a piece, a line headed by the entry shows the natural chain unless it says otherwise.
# UniProt P28482, whole entry: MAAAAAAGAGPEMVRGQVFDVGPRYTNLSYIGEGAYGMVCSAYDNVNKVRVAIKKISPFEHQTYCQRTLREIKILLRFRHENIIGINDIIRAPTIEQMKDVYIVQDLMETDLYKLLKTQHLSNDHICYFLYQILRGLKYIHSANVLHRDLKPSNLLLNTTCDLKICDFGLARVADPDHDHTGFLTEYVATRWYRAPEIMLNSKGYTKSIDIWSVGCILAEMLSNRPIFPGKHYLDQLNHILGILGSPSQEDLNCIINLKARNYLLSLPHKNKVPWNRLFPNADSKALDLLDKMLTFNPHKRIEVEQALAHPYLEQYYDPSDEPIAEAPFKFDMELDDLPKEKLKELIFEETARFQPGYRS
# UniProt P49137, whole entry, looked up: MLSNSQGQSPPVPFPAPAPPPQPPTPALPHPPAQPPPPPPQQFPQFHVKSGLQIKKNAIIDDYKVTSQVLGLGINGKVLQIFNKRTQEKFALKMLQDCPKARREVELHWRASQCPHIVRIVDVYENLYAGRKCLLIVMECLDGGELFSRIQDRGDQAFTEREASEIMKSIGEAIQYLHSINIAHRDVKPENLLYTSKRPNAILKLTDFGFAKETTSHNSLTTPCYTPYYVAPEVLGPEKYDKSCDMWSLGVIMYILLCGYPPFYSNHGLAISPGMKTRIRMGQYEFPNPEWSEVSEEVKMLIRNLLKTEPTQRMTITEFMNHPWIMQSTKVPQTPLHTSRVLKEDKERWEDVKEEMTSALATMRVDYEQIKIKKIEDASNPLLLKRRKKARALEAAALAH
# UniProt Q9BUB5: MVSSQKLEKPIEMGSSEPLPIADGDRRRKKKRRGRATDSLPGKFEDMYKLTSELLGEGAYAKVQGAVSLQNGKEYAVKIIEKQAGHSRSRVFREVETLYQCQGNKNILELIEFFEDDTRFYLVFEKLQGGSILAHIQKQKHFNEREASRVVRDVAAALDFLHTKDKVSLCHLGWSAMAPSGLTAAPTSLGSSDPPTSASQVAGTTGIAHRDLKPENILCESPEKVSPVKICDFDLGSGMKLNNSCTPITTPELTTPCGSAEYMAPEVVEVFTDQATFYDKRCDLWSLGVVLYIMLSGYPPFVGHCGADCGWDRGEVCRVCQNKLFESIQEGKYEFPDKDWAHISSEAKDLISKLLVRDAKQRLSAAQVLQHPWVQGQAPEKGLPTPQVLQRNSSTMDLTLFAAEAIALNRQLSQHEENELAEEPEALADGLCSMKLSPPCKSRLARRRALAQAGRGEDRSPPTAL
# UniProt Q96KB5: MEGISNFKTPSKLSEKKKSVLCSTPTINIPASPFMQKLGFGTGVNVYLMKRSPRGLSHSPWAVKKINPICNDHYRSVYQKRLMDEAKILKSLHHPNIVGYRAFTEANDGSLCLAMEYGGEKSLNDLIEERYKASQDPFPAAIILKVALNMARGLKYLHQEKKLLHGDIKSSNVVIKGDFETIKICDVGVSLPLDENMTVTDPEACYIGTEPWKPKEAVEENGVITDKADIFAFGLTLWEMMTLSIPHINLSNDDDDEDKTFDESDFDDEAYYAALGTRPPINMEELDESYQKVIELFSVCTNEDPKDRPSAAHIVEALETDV
# UniProt Q15118, whole entry, looked up: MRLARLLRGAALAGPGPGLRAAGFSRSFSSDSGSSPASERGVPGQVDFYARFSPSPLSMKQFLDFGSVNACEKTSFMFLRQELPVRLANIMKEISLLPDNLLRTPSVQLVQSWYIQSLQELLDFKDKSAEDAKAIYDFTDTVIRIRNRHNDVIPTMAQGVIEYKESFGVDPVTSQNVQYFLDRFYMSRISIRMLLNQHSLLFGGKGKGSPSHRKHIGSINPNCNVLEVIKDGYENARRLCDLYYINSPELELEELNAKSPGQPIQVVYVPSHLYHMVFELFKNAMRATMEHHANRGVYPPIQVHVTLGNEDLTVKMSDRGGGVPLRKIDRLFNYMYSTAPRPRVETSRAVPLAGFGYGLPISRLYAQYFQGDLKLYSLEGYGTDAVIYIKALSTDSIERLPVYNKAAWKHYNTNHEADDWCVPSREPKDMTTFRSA
# UniProt O15530: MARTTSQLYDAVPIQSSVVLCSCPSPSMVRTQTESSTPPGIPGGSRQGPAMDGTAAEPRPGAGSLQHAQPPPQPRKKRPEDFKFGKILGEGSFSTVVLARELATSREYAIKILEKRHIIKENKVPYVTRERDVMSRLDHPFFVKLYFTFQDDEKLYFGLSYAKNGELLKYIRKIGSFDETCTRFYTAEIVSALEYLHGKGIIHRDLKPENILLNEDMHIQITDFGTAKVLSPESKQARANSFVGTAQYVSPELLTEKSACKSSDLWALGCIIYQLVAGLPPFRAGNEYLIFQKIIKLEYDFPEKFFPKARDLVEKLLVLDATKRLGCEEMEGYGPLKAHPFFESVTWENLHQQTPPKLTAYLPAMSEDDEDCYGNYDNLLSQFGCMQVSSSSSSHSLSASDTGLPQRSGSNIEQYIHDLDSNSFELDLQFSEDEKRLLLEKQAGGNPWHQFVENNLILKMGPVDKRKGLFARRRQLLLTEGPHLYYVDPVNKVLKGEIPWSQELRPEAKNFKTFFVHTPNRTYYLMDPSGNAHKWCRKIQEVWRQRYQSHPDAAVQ
# UniProt P42356, whole entry, looked up: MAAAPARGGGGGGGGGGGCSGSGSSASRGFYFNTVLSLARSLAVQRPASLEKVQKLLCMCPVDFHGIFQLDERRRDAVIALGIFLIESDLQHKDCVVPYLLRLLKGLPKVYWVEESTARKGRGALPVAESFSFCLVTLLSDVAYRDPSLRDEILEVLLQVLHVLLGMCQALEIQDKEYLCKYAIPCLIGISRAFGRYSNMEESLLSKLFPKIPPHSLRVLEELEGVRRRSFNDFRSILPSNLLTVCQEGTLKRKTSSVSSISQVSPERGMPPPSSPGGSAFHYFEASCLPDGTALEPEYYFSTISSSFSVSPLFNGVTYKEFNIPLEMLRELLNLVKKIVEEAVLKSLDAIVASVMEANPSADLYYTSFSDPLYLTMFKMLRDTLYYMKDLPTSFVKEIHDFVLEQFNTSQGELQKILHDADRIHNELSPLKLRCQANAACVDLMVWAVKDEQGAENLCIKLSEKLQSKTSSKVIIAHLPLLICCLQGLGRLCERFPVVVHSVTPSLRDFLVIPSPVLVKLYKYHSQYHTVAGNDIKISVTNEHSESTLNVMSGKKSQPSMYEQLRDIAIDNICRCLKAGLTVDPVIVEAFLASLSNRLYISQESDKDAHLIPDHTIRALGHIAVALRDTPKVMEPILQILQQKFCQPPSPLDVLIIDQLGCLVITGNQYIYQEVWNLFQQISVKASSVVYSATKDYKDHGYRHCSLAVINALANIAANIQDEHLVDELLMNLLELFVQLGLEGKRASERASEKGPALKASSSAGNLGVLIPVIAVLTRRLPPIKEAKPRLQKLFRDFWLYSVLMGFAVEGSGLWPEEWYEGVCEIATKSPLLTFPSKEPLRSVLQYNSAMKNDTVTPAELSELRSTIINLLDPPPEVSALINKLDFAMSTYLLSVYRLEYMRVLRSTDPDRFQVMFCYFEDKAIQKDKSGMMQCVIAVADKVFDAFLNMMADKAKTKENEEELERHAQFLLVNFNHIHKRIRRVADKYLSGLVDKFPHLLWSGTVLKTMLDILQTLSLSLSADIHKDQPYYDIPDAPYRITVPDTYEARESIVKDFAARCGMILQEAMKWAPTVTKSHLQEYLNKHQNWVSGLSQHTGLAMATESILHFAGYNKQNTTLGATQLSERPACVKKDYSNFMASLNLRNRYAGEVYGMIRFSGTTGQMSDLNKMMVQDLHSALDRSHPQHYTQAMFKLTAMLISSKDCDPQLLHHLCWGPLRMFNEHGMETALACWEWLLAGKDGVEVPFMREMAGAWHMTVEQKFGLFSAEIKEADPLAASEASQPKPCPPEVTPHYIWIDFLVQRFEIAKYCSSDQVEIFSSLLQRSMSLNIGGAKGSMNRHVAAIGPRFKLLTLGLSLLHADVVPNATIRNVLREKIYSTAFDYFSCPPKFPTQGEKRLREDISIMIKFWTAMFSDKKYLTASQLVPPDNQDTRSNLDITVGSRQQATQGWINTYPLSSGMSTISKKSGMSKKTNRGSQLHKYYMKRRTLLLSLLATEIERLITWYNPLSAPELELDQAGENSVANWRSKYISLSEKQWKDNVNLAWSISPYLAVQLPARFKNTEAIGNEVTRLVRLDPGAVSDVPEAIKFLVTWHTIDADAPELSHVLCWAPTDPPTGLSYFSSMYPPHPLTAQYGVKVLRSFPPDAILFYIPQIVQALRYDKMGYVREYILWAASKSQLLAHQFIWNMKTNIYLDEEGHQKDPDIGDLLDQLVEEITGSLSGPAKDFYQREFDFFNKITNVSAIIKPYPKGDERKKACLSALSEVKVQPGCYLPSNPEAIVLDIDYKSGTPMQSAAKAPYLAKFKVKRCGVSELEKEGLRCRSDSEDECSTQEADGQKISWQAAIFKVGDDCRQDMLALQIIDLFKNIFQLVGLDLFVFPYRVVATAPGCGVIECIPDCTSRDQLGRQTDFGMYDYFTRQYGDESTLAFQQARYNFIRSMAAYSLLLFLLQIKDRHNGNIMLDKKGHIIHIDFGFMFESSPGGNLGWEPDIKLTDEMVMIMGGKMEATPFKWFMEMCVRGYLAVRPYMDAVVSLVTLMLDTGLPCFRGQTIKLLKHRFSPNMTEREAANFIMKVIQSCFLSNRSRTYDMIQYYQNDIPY
# UniProt P53350, whole entry: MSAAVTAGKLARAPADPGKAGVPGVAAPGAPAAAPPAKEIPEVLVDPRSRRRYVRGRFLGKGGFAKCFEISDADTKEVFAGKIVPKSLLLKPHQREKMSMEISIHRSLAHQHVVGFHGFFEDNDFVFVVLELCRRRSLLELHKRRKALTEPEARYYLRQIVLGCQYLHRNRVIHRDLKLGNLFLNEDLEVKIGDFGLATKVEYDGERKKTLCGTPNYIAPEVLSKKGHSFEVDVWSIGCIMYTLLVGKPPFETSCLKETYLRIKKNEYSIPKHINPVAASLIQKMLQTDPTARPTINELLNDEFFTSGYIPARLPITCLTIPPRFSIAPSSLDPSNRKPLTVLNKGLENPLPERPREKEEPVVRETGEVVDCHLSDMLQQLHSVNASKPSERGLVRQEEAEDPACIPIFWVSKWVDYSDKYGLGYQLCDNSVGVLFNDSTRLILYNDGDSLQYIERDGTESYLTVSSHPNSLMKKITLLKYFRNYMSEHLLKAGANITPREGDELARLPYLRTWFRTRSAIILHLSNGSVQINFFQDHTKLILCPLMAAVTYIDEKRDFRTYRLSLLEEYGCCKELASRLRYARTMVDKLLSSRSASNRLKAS
# UniProt Q13131: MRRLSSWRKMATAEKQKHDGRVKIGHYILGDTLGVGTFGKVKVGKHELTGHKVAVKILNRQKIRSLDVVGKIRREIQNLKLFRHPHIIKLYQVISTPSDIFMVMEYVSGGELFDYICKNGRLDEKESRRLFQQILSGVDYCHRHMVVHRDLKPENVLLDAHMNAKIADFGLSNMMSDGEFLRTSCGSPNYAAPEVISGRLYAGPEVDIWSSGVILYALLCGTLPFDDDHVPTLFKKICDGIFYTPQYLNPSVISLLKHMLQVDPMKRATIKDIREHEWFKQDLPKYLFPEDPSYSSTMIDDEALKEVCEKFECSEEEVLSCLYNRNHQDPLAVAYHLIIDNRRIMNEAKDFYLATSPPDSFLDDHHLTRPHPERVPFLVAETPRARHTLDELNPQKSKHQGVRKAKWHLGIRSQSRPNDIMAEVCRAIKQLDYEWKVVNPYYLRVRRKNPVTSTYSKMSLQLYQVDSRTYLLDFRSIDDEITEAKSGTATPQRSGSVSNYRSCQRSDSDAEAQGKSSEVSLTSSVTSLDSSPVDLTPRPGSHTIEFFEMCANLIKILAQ
# Some of the results follow. The calls rarely recur for the same compound in another form.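 Kinases were expressed as nanoluciferase fusions in K562 cells and luminescence was read every 4 h between 2 and 18 h as percent of control, DMSO set to 100% and a positive control to 0%. A time point counts as decreased when the signal drops significantly (2 sigma). The hit call is the authors' own, does not follow from the count of time points alone, and its rule is not shown.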
# Tests used:
# Test in all cases: kinase-Nluc reporter destabilization hit call (1 = scored as downregulated) (binary); higher = compound decreases kinase abundance
# Settings in all cases: K562; 2-18 h
# MAPK1 = MAPK1 (UniProt P28482)
# MAPK4 = MAPK4 (UniProt P31152)
# MAPKAPK2 = MAPKAPK2 (UniProt P49137)
# MKNK1 = MKNK1 (UniProt Q9BUB5)
# NTRK2 = NTRK2 (UniProt Q16620)
# NTRK3 = NTRK3 (UniProt Q16288)
# PAK4 = PAK4 (UniProt O96013)
# PBK = PBK (UniProt Q96KB5)
# PDGFRB = PDGFRB (UniProt P09619)
# PDK1 = PDK1 (UniProt Q15118)
# PDPK1 = PDPK1 (UniProt O15530)
# PIK4CA = PIK4CA (UniProt P42356)
# PIK4CB = PIK4CB (UniProt Q9UBF8)
# PLK1 = PLK1 (UniProt P53350)
# PRKAA1 = PRKAA1 (UniProt Q13131)
# PRKCA = PRKCA (UniProt P17252)
# PTK2 = PTK2 (UniProt Q05397)
# PTK2B = PTK2B (UniProt Q14289)
# RAF1 = RAF1 (UniProt P04049)
# [1] = biological target: RAF1_S257L (clone: RAF1_mut) (UniProt P04049)
Structure (SMILES),kinase-Nluc reporter destabilization hit call (MAPK1),kinase-Nluc reporter destabilization hit call (MAPK4),kinase-Nluc reporter destabilization hit call (MAPKAPK2),kinase-Nluc reporter destabilization hit call (MKNK1),kinase-Nluc reporter destabilization hit call (NTRK2),kinase-Nluc reporter destabilization hit call (NTRK3),kinase-Nluc reporter destabilization hit call (PAK4),kinase-Nluc reporter destabilization hit call (PBK),kinase-Nluc reporter destabilization hit call (PDGFRB),kinase-Nluc reporter destabilization hit call (PDK1),kinase-Nluc reporter destabilization hit call (PDPK1),kinase-Nluc reporter destabilization hit call (PIK4CA),kinase-Nluc reporter destabilization hit call (PIK4CB),kinase-Nluc reporter destabilization hit call (PLK1),kinase-Nluc reporter destabilization hit call (PRKAA1),kinase-Nluc reporter destabilization hit call (PRKCA),kinase-Nluc reporter destabilization hit call (PTK2),kinase-Nluc reporter destabilization hit call (PTK2B),kinase-Nluc reporter destabilization hit call (RAF1),kinase-Nluc reporter destabilization hit call [1]
NC(=O)c1ccc(N(C(N)=O)c2c(F)cccc2F)nc1-c1ccc(F)cc1F (10 µM),inactive: 0,inactive: 0,inactive: 0,inactive: 0,inactive: 0,inactive: 0,inactive: 0,inactive: 0,inactive: 0,inactive: 0,inactive: 0,inactive: 0,inactive: 0,inactive: 0,inactive: 0,inactive: 0,inactive: 0,inactive: 0,inactive: 0,inactive: 0
COC(=O)/C=C/c1ccccc1 [Methyl cinnamate] (10 µM),inactive: 0,inactive: 0,inactive: 0,inactive: 0,inactive: 0,inactive: 0,inactive: 0,inactive: 0,inactive: 0,inactive: 0,inactive: 0,inactive: 0,inactive: 0,inactive: 0,inactive: 0,inactive: 0,inactive: 0,inactive: 0,inactive: 0,inactive: 0
CNC(=O)c1ccc2c(C(=Nc3cccc(CN(C)C)c3)c3ccccc3)c(O)[nH]c2c1 [MEK inhibitor] (10 µM),inactive: 0,inactive: 0,inactive: 0,inactive: 0,inactive: 0,inactive: 0,inactive: 0,inactive: 0,inactive: 0,inactive: 0,inactive: 0,inactive: 0,inactive: 0,inactive: 0,inactive: 0,inactive: 0,inactive: 0,inactive: 0,inactive: 0,inactive: 0
Nc1[nH]nc2nc(-c3ccc(NS(=O)(=O)c4cc(Cl)ccc4Cl)cc3)cnc12 (10 µM),inactive: 0,inactive: 0,inactive: 0,inactive: 0,inactive: 0,inactive: 0,inactive: 0,inactive: 0,inactive: 0,inactive: 0,inactive: 0,inactive: 0,inactive: 0,inactive: 0,inactive: 0,inactive: 0,inactive: 0,inactive: 0,inactive: 0,inactive: 0
COCCOCCc1c(C)c2cc(OC)c(O)c(C=O)c2oc1=O (10 µM),inactive: 0,inactive: 0,inactive: 0,inactive: 0,inactive: 0,inactive: 0,inactive: 0,inactive: 0,inactive: 0,inactive: 0,inactive: 0,inactive: 0,inactive: 0,inactive: 0,inactive: 0,inactive: 0,inactive: 0,inactive: 0,inactive: 0,inactive: 0
COc1cc2ncnc(Nc3ccc(O)c(Br)c3)c2cc1OC (10 µM),inactive: 0,inactive: 0,inactive: 0,inactive: 0,inactive: 0,inactive: 0,inactive: 0,inactive: 0,inactive: 0,inactive: 0,inactive: 0,inactive: 0,inactive: 0,inactive: 0,inactive: 0,inactive: 0,inactive: 0,inactive: 0,inactive: 0,inactive: 0
CC(C)=CC[C@@H](O)C1=CC(=O)c2c(O)ccc(O)c2C1=O [Shikonin] (10 µM),inactive: 0,inactive: 0,inactive: 0,inactive: 0,inactive: 0,inactive: 0,inactive: 0,inactive: 0,inactive: 0,inactive: 0,inactive: 0,inactive: 0,inactive: 0,inactive: 0,inactive: 0,inactive: 0,inactive: 0,inactive: 0,inactive: 0,inactive: 0
Cc1cccc(/C=N/Nc2cc(N3CCOCC3)n3nc(-c4ccncc4)cc3n2)c1 (10 µM),inactive: 0,inactive: 0,inactive: 0,inactive: 0,inactive: 0,inactive: 0,inactive: 0,inactive: 0,inactive: 0,inactive: 0,inactive: 0,inactive: 0,inactive: 0,inactive: 0,inactive: 0,inactive: 0,inactive: 0,inactive: 0,inactive: 0,inactive: 0
Brc1ccc(CSc2nc3ccccc3o2)cc1 [BMP signaling agonist sb4] (10 µM),inactive: 0,inactive: 0,inactive: 0,inactive: 0,inactive: 0,inactive: 0,inactive: 0,inactive: 0,inactive: 0,inactive: 0,inactive: 0,inactive: 0,inactive: 0,inactive: 0,inactive: 0,inactive: 0,inactive: 0,inactive: 0,inactive: 0,inactive: 0
O=C1Nc2ccc(I)cc2/C1=C/c1cc(Br)c(O)c(Br)c1 (10 µM),inactive: 0,inactive: 0,inactive: 0,inactive: 0,inactive: 0,inactive: 0,inactive: 0,inactive: 0,inactive: 0,inactive: 0,inactive: 0,inactive: 0,inactive: 0,inactive: 0,inactive: 0,inactive: 0,active: 1,inactive: 0,inactive: 0,inactive: 0
C=CC(=O)Nc1ccc(C(=O)Nc2[nH]nc3c2CN(C(=O)N[C@H](CN(C)C)c2ccccc2)C3(C)C)cc1 (10 µM),inactive: 0,inactive: 0,inactive: 0,inactive: 0,inactive: 0,inactive: 0,inactive: 0,inactive: 0,inactive: 0,inactive: 0,inactive: 0,inactive: 0,inactive: 0,inactive: 0,inactive: 0,inactive: 0,inactive: 0,inactive: 0,inactive: 0,inactive: 0
Clc1ccc(C(c2ccc(Cl)cc2)[n+]2ccn(CC(OCc3ccc(Cl)cc3Cl)c3ccc(Cl)cc3Cl)c2)cc1 (stereo not given) [Calmidazolium chloride] (2.5 µM),inactive: 0,inactive: 0,inactive: 0,inactive: 0,inactive: 0,inactive: 0,inactive: 0,inactive: 0,inactive: 0,inactive: 0,inactive: 0,inactive: 0,inactive: 0,inactive: 0,inactive: 0,inactive: 0,inactive: 0,inactive: 0,inactive: 0,inactive: 0
COc1cc(-c2oc3cc(O)cc(O)c3c(=O)c2O)ccc1O [Isorhamnetin] (10 µM),inactive: 0,inactive: 0,inactive: 0,inactive: 0,inactive: 0,inactive: 0,inactive: 0,inactive: 0,inactive: 0,inactive: 0,inactive: 0,inactive: 0,inactive: 0,inactive: 0,inactive: 0,inactive: 0,inactive: 0,inactive: 0,inactive: 0,inactive: 0
CC(C)Oc1ccc(F)c(-c2cnc(N)c(C(=O)Nc3cnccc3N3CCC[C@@H](C(=O)O)C3)n2)c1 (2 µM),inactive: 0,inactive: 0,inactive: 0,inactive: 0,inactive: 0,inactive: 0,inactive: 0,inactive: 0,inactive: 0,inactive: 0,inactive: 0,inactive: 0,inactive: 0,inactive: 0,inactive: 0,inactive: 0,inactive: 0,inactive: 0,inactive: 0,inactive: 0
C=C1C(=O)[C@@]23[C@H](O)C[C@@H]4C(C)(C)C(=O)CC[C@@]4(C)[C@@H]2CC[C@@H]1[C@H]3O [Glaucocalyxin A] (2.5 µM),inactive: 0,inactive: 0,inactive: 0,inactive: 0,inactive: 0,inactive: 0,inactive: 0,inactive: 0,inactive: 0,inactive: 0,inactive: 0,inactive: 0,inactive: 0,inactive: 0,inactive: 0,inactive: 0,inactive: 0,inactive: 0,inactive: 0,inactive: 0
C=C1CCC[C@]2(C)C=C3OC(=O)C(C)=C3C[C@@H]12 [Atractylenolide I] (10 µM),inactive: 0,inactive: 0,inactive: 0,inactive: 0,inactive: 0,inactive: 0,inactive: 0,inactive: 0,inactive: 0,inactive: 0,inactive: 0,inactive: 0,inactive: 0,inactive: 0,inactive: 0,inactive: 0,inactive: 0,inactive: 0,inactive: 0,inactive: 0
CCN1CCN(Cc2cnc(Nc3cc(-c4cc(F)c5nc(C)n(C(C)C)c5c4)c(F)cn3)nc2)CC1 (10 µM),inactive: 0,inactive: 0,inactive: 0,inactive: 0,inactive: 0,inactive: 0,inactive: 0,inactive: 0,inactive: 0,inactive: 0,inactive: 0,inactive: 0,inactive: 0,inactive: 0,inactive: 0,inactive: 0,inactive: 0,inactive: 0,inactive: 0,inactive: 0
CN1CCN(c2ccc(Nc3ncc4cc(C#N)c(=O)n(C5CCCC5)c4n3)cc2)CC1 (10 µM),inactive: 0,inactive: 0,inactive: 0,inactive: 0,inactive: 0,inactive: 0,inactive: 0,inactive: 0,inactive: 0,inactive: 0,inactive: 0,inactive: 0,inactive: 0,inactive: 0,inactive: 0,inactive: 0,inactive: 0,inactive: 0,inactive: 0,inactive: 0

# Sorted by SMILES length (ascending): three of the compounds above.
Structure (SMILES),kinase-Nluc reporter destabilization hit call (MAPK1),kinase-Nluc reporter destabilization hit call (MAPK4),kinase-Nluc reporter destabilization hit call (MAPKAPK2),kinase-Nluc reporter destabilization hit call (MKNK1),kinase-Nluc reporter destabilization hit call (NTRK2),kinase-Nluc reporter destabilization hit call (NTRK3),kinase-Nluc reporter destabilization hit call (PAK4),kinase-Nluc reporter destabilization hit call (PBK),kinase-Nluc reporter destabilization hit call (PDGFRB),kinase-Nluc reporter destabilization hit call (PDK1),kinase-Nluc reporter destabilization hit call (PDPK1),kinase-Nluc reporter destabilization hit call (PIK4CA),kinase-Nluc reporter destabilization hit call (PIK4CB),kinase-Nluc reporter destabilization hit call (PLK1),kinase-Nluc reporter destabilization hit call (PRKAA1),kinase-Nluc reporter destabilization hit call (PRKCA),kinase-Nluc reporter destabilization hit call (PTK2),kinase-Nluc reporter destabilization hit call (PTK2B),kinase-Nluc reporter destabilization hit call (RAF1),kinase-Nluc reporter destabilization hit call [1]
O=C1Nc2ccc(I)cc2/C1=C/c1cc(Br)c(O)c(Br)c1 (10 µM),inactive: 0,inactive: 0,inactive: 0,inactive: 0,inactive: 0,inactive: 0,inactive: 0,inactive: 0,inactive: 0,inactive: 0,inactive: 0,inactive: 0,inactive: 0,inactive: 0,inactive: 0,inactive: 0,active: 1,inactive: 0,inactive: 0,inactive: 0
NC(=O)c1ccc(N(C(N)=O)c2c(F)cccc2F)nc1-c1ccc(F)cc1F (10 µM),inactive: 0,inactive: 0,inactive: 0,inactive: 0,inactive: 0,inactive: 0,inactive: 0,inactive: 0,inactive: 0,inactive: 0,inactive: 0,inactive: 0,inactive: 0,inactive: 0,inactive: 0,inactive: 0,inactive: 0,inactive: 0,inactive: 0,inactive: 0
CC(C)Oc1ccc(F)c(-c2cnc(N)c(C(=O)Nc3cnccc3N3CCC[C@@H](C(=O)O)C3)n2)c1 (2 µM),inactive: 0,inactive: 0,inactive: 0,inactive: 0,inactive: 0,inactive: 0,inactive: 0,inactive: 0,inactive: 0,inactive: 0,inactive: 0,inactive: 0,inactive: 0,inactive: 0,inactive: 0,inactive: 0,inactive: 0,inactive: 0,inactive: 0,inactive: 0
